# Laboratory results reported in PubChem BioAssay AID504467 (National Center for Advancing Translational Sciences (NCATS), 2011).
# Hit rate of the full screen: of about 330,000 compounds, about 7,700 (2.3%) were called active. The shares of active, inactive and inconclusive entries below differ from those in the screen. Calls come from the whole dose curve; as a rule, active = well fitted inhibition curve with a large enough effect; inconclusive = small, poorly fitted or top-dose-only effect, or effect the other way; inactive = flat fitted curve, though single readings scatter. Where the call is inconclusive, the potency comes from a doubtful curve fit.
# Experiment: qHTS screen for small molecules that inhibit ELG1-dependent DNA repair in human embryonic kidney (HEK293T) cells expressing luciferase-tagged ELG1; note: nearly all actives have a fitted effect of over 55% in size
# Conditions: HEK293T ELG1-luciferase reporter, luminescence, 16 h, DNA damage induced by 5-fluorouridine; activity change, negative = inhibition: at 46.1 µM (top of the series)
# Summary of the method: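 HEK293T cells expressing luciferase-tagged ELG1 (2,000/well) received 5-Fluorouridine plus compound or DMSO for 16 hr at 37 °C. Luciferase was read by ONE-Glo luminescence after 30 min at room temperature.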
# % is set by controls: 0 for no effect and ±100 for the full control effect; potency is the fitted concentration of half-maximal effect.
Compound,Potency,"activity change, negative = inhibition"
CCC1CCC(C(=O)NC(C(=O)Nc2ccc3c(c2)OCCO3)C(C)C)CC1 (stereo not drawn),"inconclusive: 20.6 µM [activator, partial curve]",–
COCCn1cnc2c1c(=O)n(Cc1cc(C(C)=O)ccc1OC)c(=O)n2Cc1ccccc1,"inconclusive: 29.1 µM [inhibitor, single point]",–
COc1ccc(OCC(O)CNC(=O)c2ccc(Br)cc2)cc1 (stereo not drawn),–,inactive: -16.4%
COc1ccc2oc(C(=O)N3CCN(S(=O)(=O)c4cccc([N+](=O)[O-])c4)CC3)c(C)c2c1,active: 7.3 µM,–
COC(=O)[C@]1(C)N[C@H](CN(C)C(=O)NC(C)C)[C@@H]2C(=O)N(C)C(=O)[C@@H]21,"inconclusive: 20.6 µM [activator, partial curve, poor fit]",–
O=C(Nc1ncc(Cc2cccc(Cl)c2)s1)C1CCCO1 (stereo not drawn),"inconclusive: 12.6 µM [activator, partial curve, poor fit]",–
CN(C)c1ccc(/C=N/NC(=O)CCc2nc3ccccc3[nH]2)cc1,"inconclusive: 16.4 µM [activator, partial curve]",–
Cc1ccc(-c2nc(NC(=O)c3cc(C(C)(C)C)nn3C)sc2C)cc1Cl,active: 4.61 µM,–
COc1ccc(NS(=O)(=O)c2cccc(C(=O)NCC(c3ccc(F)cc3)N3CCOCC3)c2)cc1 (stereo not drawn),"inconclusive: 23.1 µM [inhibitor, single point]",–
CCCc1cc(=O)oc2cc(C)cc(OCC(=O)NCc3ccncc3)c12,–,inactive: 0.76%
Nc1ccc(C#Cc2ccc3c(=O)c4ccccc4oc3c2)cc1,"inconclusive: 5.17 µM [activator, partial curve, poor fit]",–
COc1ccc(Br)cc1CN(C)CC(=O)Nc1cc([N+](=O)[O-])ccc1OC,"inconclusive: 23.1 µM [inhibitor, partial curve]",–
Cc1ccc2cc(C)c(SCC(=O)Nc3ccc(S(=O)(=O)N4CCCC4)cc3)nc2c1,"inconclusive: 23.1 µM [inhibitor, partial curve]",–
COc1ccc(NC(=S)N2CCc3ccccc32)cc1OC,"inconclusive: 18.3 µM [activator, partial curve]",–
CCn1c(=S)[nH]c2scc(-c3cccs3)c2c1=O,"inconclusive: 29.1 µM [inhibitor, single point]",–
C=CCNc1oc(/C=C/c2ccccc2)nc1C#N,"inconclusive: 0.92 µM [activator, full curve]",–
COC(=O)c1ccc(NC(=O)Cc2ccccc2)cc1,"inconclusive: 9.2 µM [activator, partial curve]",–
Cc1cccc2sc(N(CCCN(C)C)C(=O)COc3ccc(Cl)cc3)nc12,–,inactive: 2.51%

# In another format: results already given.
Compound | Potency | activity change, negative = inhibition
COc1ccc2oc(C(=O)N3CCN(S(=O)(=O)c4cccc([N+](=O)[O-])c4)CC3)c(C)c2c1 | active: 7.3 µM | –
COC(=O)[C@]1(C)N[C@H](CN(C)C(=O)NC(C)C)[C@@H]2C(=O)N(C)C(=O)[C@@H]21 | inconclusive: 20.6 µM [activator, partial curve, poor fit] | –
